Reference: PubChem BioAssay AID504791 (Drosophila RNAi Screening Center, 2011)

Aim: 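Factors in Argonaute-based small RNA production and activity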 (primary screen)
System: Drosophila S2-derived reporter cells
Reagent: long dsRNA against Drosophila genes, about 150-250 ng dsRNA per well (siRNA assay); about 80-120 ng (miRNA assay)
Duration: about 5 days (siRNA assay); about 4 days (miRNA assay)
Conditions: copper sulfate induction of reporters: 25 µM (siRNA assay); 200 mM stated (miRNA assay), 1-2 days before reading
Read-out: 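Dual luciferase assay: Renilla to firefly signal ratio in each well, scaled to the mean ratio of its plate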
Direction: siRNA reporter hit score: higher = 3 marks a strong hit with raised ratio; -3 a strong hit with lowered ratio
Rule for the call: 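First-pass picks had plate-scaled ratios over 1.5 for the siRNA assay, over 1.6 for the miRNA assay, or under 0.6; two distinct dsRNAs had to score alike on retest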
In all, the deposit lists about 23,000 reagents; below is a random part of those that have a named target and a result. Of all reagents, 199 (0.86%) are marked active. 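Plate-scaled ratios behind the calls are not deposited; printed light signals are raw; many rows marked increased or decreased are still called inactive.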 Names joined by + are all predicted targets of the reagent.

no.	gene	DRSC id	siRNA reporter hit score	stable siRNA reporter change	miRNA reporter change	stable assay Renilla, run 1 (luminescence)	stable assay firefly, run 1 (luminescence)	call
1	CG11905	DRSC09863				8951	2.90e5	inactive
2	Fign	DRSC00592				25405	5.83e5	inactive
3	MAN1	DRSC04342				2.34e5	1.67e6	inactive
4	TwdlV	DRSC12226				6274	3.19e5	inactive
5	su(w[a])	DRSC18840				8650	4.94e5	inactive
6	gro	DRSC16962				9430	5.43e5	inactive
7	CG4198	DRSC18354				6514	5.07e5	inactive
8	CG13029	DRSC09909				6670	3.39e5	inactive
9	CG13067	DRSC09950				6662	4.22e5	inactive
10	CG9626	DRSC16525				8046	4.86e5	inactive
11	CG14618	DRSC20631				6626	4.71e5	inactive
12	Lip2	DRSC02577				7444	3.91e5	inactive
13	Lip2	DRSC02578				7178	4.70e5	inactive
14	CycJ	DRSC08653				7998	5.50e5	inactive
15	CG14085	DRSC10089				6831	3.75e5	inactive
16	CG8128	DRSC20084				8605	6.76e5	inactive
17	CG3294	DRSC00590				11930	5.64e5	inactive
18	CG42808 + CG42807	DRSC06370				7199	3.51e5	inactive
19	CG42808 + CG42807	DRSC06966				6427	3.08e5	inactive
20	CG14861	DRSC14984				7866	4.82e5	inactive
21	Aladin	DRSC18121				10408	5.14e5	inactive
22	CycG	DRSC14324				7244	4.10e5	inactive
23	CycG	DRSC23345				4679	3.71e5	inactive
24	CG5888	DRSC01929				41541	1.21e6	inactive
25	CG15646	DRSC19682				5232	4.06e5	inactive
26	Pfk	DRSC07506				7924	3.28e5	inactive
27	Nup188	DRSC21830				8162	5.27e5	inactive
28	CG6791	DRSC16118		reporter ratio raised past the hit cutoff		13192	4.22e5	inactive
29	mbf1	DRSC11365				9626	4.97e5	inactive
30	CG4829	DRSC19920				8377	4.66e5	inactive
31	swaPsi	DRSC21685				8281	4.44e5	inactive
32	Arl6IP1	DRSC14231				7887	4.39e5	inactive
33	PolD1	DRSC11138				9137	3.94e5	inactive
34	CG7326	DRSC20037				5783	4.44e5	inactive
35	AIF	DRSC00696				11778	5.03e5	inactive
36	SpdS	DRSC16408				6103	3.38e5	inactive
37	Ndg	DRSC06223				8820	3.75e5	inactive
38	hwt	DRSC19386				4223	3.68e5	inactive
39	Drsl5	DRSC08159				6122	3.74e5	inactive
40	CG15047	DRSC19623				4968	4.20e5	inactive
41	CG15047	DRSC21443				8787	4.54e5	inactive
42	Polr2G	DRSC16068				5431	2.63e5	inactive
43	SrpRalpha	DRSC20251				8474	6.44e5	inactive
44	CG43896	DRSC10754				6274	4.04e5	inactive
45	tna	DRSC09053				4811	4.04e5	inactive
46	tna	DRSC10937				6447	4.01e5	inactive
47	tna	DRSC23236				3748	3.23e5	inactive
48	Keap1	DRSC15528				9409	3.43e5	inactive
49	CG13041	DRSC09922				7259	4.65e5	inactive
50	larp	DRSC14728				6159	4.12e5	inactive
51	larp	DRSC16984				6835	3.50e5	inactive
52	larp	DRSC21856				9439	6.99e5	inactive
53	CG14926	DRSC02409		reporter ratio lowered past the hit cutoff		7643	7.64e5	inactive
54	Papss	DRSC11246				9483	4.30e5	inactive
55	ash2	DRSC16902				11380	3.52e5	inactive
56	CG42324	DRSC08431				6099	3.56e5	inactive
57	CG42324	DRSC08432				5435	3.28e5	inactive
58	CG30161	DRSC22141				9244	4.86e5	inactive
59	GILT3	DRSC14672				7307	4.61e5	inactive
60	Ufd1	DRSC10607				5907	3.74e5	inactive
61	CanA1	DRSC16600				7427	3.20e5	inactive
62	CG13364	DRSC17898				6371	3.94e5	inactive
63	CG13364	DRSC21263				5539	4.19e5	inactive
64	CtsL2	DRSC06978				7688	3.85e5	inactive
65	sad	DRSC16630				7639	4.39e5	inactive
66	CG14406	DRSC19592				5240	4.37e5	inactive
67	ORMDL	DRSC11737				7255	3.82e5	inactive
68	cathD	DRSC07588				6434	3.94e5	inactive
69	ttm50	DRSC18587				7314	4.44e5	inactive
70	CR40354	DRSC20923				4642	3.87e5	inactive
71	bgm	DRSC03495				9158	1.86e6	inactive
72	Fad2	DRSC11165				5036	2.26e5	inactive
73	CG14089	DRSC10093				7570	3.93e5	inactive
74	CG6567	DRSC16066				6795	3.53e5	inactive
75	CG14505	DRSC06476				6423	3.15e5	inactive
76	CG18131	DRSC00517				2532	2.15e5	inactive
77	CG18131	DRSC22983				4895	3.48e5	inactive
78	CG31418	DRSC21780				8742	4.91e5	inactive
79	Teh4	DRSC08457				5351	3.14e5	inactive
80	dpa	DRSC07604				6527	3.49e5	inactive
81	CG31226	DRSC21724				8942	6.19e5	inactive
82	Apoltp	DRSC02508				6536	7.80e5	inactive
83	Hsc70-4	DRSC16711	3	reporter ratio lowered past the hit cutoff		7641	7.35e5	active
84	Hsc70-4	DRSC29729			reporter ratio raised past the hit cutoff			active
